{"source": "patent US20090075941A1", "about": "“TREATING NEOPLASMS” (THE UAB RESEARCH FOUNDATION, priority 2006, published 2009)", "tested_on": "MDA-MB-231 cells", "assay": "Lucifer yellow uptake (hemichannel opening)", "assay_type": "cell-based, human", "conditions": "short-term treatment (15 minutes, 10^−6 M)", "procedure": "Lucifer yellow uptake. To investigate the possibility that bisphosphonate-induced hemichannel opening mediates the effects of these drugs also in breast cancer cells Lucifer yellow uptake was studied in MDA-MB-231 cells. […] The cells were first incubated in serum-free conditions with ethanol or heptanol for 15 minutes. After this, the treatments (vehicle, 5 mM EGTA, 10^−6 M alendronate or zoledronate) were added for further 15 minutes. Lucifer yellow (10 μg/ml) (Sigma) was added for the final 1 minute after which the cells were washed with serum-free media to close the hemichannels again and fixed with 3% PFA-PBS. The cells were then stained with Hoechst (Sigma, 1 mg-ml stock prepared in ethanol and used in 1:800 dilution in PBS) to visualize nuclei, as previously described in Selander et al. (1996) Mol. Pharmacol. 50, 1127-1138. Samples were viewed with fluorescent microscope to examine the uptake of Lucifer yellow.", "data": [{"molecule": "NCCCC(O)(P(=O)(O)O)P(=O)(O)O", "note": "[alendronate]", "values": [{"measurement": "increased hemichannel-mediated cellular uptake of Lucifer yellow", "value": "not detected"}]}]}
